Data taken from patent US10463764B2, “3D tissue-engineered bone marrow for personalized therapy and drug development” (Washington University, priority 2014, dated 2019).

Test system: MM1s-GFP cells
Test: Doxorubicin drug uptake by MM cells in 3DTEBM versus classic 2D cultures, by flow cytometry
Format: cell-based

COc1cccc2c1C(=O)c1c(O)c3c(c(O)c1C2=O)C[C@@](O)(C(=O)CO)C[C@@H]3O[C@H]1C[C@H](N)[C@H](O)[C@H](C)O1 [doxorubicin]
drug uptake of MM cells grown in 3DTEBM as a function of tissue depth (7.5 μg/ml, 4 h, 25-150 μl 3DTEBM): inversely correlated with the depth of the tissue
less drug uptake by MM cells in 3DTEBM than in classic 2D cultures (4 h treatment, all drug concentrations tested (0-10 μg/ml), p<0.02): 2 fold
